PubChem BioAssay AID1224830, NIAID – 2016

Test: 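Genes whose knock-down alters the TNF-alpha reporter response to LPS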 (primary screen)
Cell system: human THP-1 monocytic leukaemia cells, TNF dual-luciferase reporter clone, PMA-differentiated to macrophage-like cells
Knock-down reagent: siRNA pool against human genes, 50 nM
Time to read-out: LPS for 4 h, given about 3 days after siRNA transfection
Conditions: bacterial LPS (TLR4 ligand), 10 ng/ml
Measurement: 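Ratio of firefly to renilla light, scaled to the plate median and expressed as a robust z-score per replicate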
Reading the numbers: TNF reporter robust z-score: higher = stronger TNF reporter response to LPS
Call rule: 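a well is active when its z-score exceeds 2.8 or falls below -1.5; control wells carry no call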
Shown is a random part of about 18,000 deposited reagents. About 2,900 of all reagents (16%) were called active. 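Calls are made per well; low scores hint the gene aids the LPS response, high scores that it dampens it.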 Repeated entries: four replicate wells of each siRNA pool.

target	TNF reporter robust z-score	activity call
FGL2	0.02	inactive
FGL2	0.18	inactive
FGL2	-0.17	inactive
FGL2	-0.16	inactive
TNFRSF11A	-0.84	inactive
TNFRSF11A	-0.96	inactive
TNFRSF11A	-0.94	inactive
TNFRSF11A	-0.41	inactive
NFS1	1.07	inactive
NFS1	0	inactive
NFS1	-0.96	inactive
NFS1	0.44	inactive
THRB	0.21	inactive
THRB	-0.38	inactive
THRB	-0.97	inactive
THRB	0.01	inactive
SRSF4	0.37	inactive
SRSF4	0.77	inactive
SRSF4	1.3	inactive
SRSF4	1.58	inactive
C1GALT1C1	1.08	inactive
C1GALT1C1	0.59	inactive
C1GALT1C1	-0.95	inactive
C1GALT1C1	-0.23	inactive
C1GALT1C1	3.29	active
C1GALT1C1	1.79	inactive
C1GALT1C1	-0.31	inactive
C1GALT1C1	1.14	inactive

9 neighbouring entries already listed:
target	TNF reporter robust z-score	activity call
TNFRSF11A	-0.41	inactive
NFS1	1.07	inactive
NFS1	0	inactive
NFS1	-0.96	inactive
NFS1	0.44	inactive
THRB	0.21	inactive
THRB	-0.38	inactive
THRB	-0.97	inactive
THRB	0.01	inactive

Additional records follow.
target	TNF reporter robust z-score	activity call
MYOF	-1.27	inactive
MYOF	-0.73	inactive
MYOF	-0.13	inactive
HTATSF1	-1.07	inactive
HTATSF1	-0.36	inactive
HTATSF1	-0.29	inactive
HTATSF1	-0.4	inactive
TLCD4	0.42	inactive
TLCD4	-0.12	inactive
TLCD4	1.12	inactive
TLCD4	1.38	inactive
DEFB1	0.26	inactive
DEFB1	1.01	inactive
DEFB1	0.06	inactive
DEFB1	1.3	inactive
TUBA8	-0.19	inactive
TUBA8	0.69	inactive
TUBA8	0.18	inactive
TUBA8	0.55	inactive
ZNF14	4.25	active
ZNF14	4.57	active
ZNF14	1.02	inactive
ZNF14	1.09	inactive
IFIT2	-0.43	inactive
IFIT2	-0.18	inactive
IFIT2	-0.62	inactive
IFIT2	-0.31	inactive
ST14	-0.02	inactive
ST14	-0.74	inactive
ST14	0.73	inactive
ST14	-0.25	inactive
KRTAP21-2	-0.55	inactive
KRTAP21-2	-0.52	inactive
KRTAP21-2	-1.54	active
TTC19	-1.38	inactive
TTC19	-1.58	active
TTC19	-1.32	inactive
TTC19	-1.13	inactive
EIF1B	-0.58	inactive
EIF1B	0.16	inactive
EIF1B	-0.72	inactive
EIF1B	-0.05	inactive
RSU1	0.11	inactive
RSU1	1.21	inactive
RSU1	-0.1	inactive
RSU1	-0.17	inactive
CUL2	-0.2	inactive
CUL2	-0.12	inactive
CUL2	-0.41	inactive
CUL2	0.22	inactive
